In the supplement of paper PMC8728848:
The list shows a part of the results.

Columns and labels:
Assay in all cases: glycan array binding signal (z-score within array); higher = stronger binding
Conditions in all cases: glycan notation: IUPAC condensed, linker removed
[1] = target: Fuc(a1-2)Gal(b1-4)GlcNAc(b1-3)Gal(b1-4)GlcNAc(b1-3)Gal(b1-4)GlcNAc
Method in brief: (§1)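 Glycan array data came from 3228 arrays in the Consortium for Functional Glycomics database, and only arrays with an available protein sequence were kept. Glycan names were put into IUPAC-condensed notation, and columns mapping to the same glycan were averaged. The binding signal is a within-array Z-score, averaged across arrays of one protein sequence run at different concentrations or buffers and across linkers. A negative Z-score can be read as non-binding.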

[2] = target: Fuc(a1-2)Gal(b1-4)GlcNAc(b1-3)GalNAc
Method in brief: as §1

[3] = target: Fuc(a1-2)Gal(b1-4)GlcNAc(b1-3)[Fuc(a1-2)Gal(b1-4)GlcNAc(b1-6)]GalNAc
Method in brief: as §1

[4] = target: Fuc(a1-2)Gal(b1-4)GlcNAc(b1-3)[Fuc(a1-3)[Gal(b1-4)]GlcNAc(b1-6)]Gal(b1-4)Glc
Method in brief: as §1

[5] = target: Fuc(a1-2)Gal(b1-4)GlcNAc(b1-6)GalNAc
Method in brief: as §1

[6] = target: Fuc(a1-2)Gal(b1-4)GlcNAc6S
Method in brief: as §1

[7] = target: Fuc(a1-2)Gal(b1-4)[Fuc(a1-3)]GlcNAc
Method in brief: as §1

[8] = target: Fuc(a1-2)Gal(b1-4)[Fuc(a1-3)]GlcNAc(b1-2)Man(a1-3)[Fuc(a1-2)Gal(b1-4)[Fuc(a1-3)]GlcNAc(b1-2)Man(a1-6)]Man(b1-4)GlcNAc(b1-4)[Fuc(a1-6)]GlcNAc
Method in brief: as §1

[9] = target: Fuc(a1-2)Gal(b1-4)[Fuc(a1-3)]GlcNAc(b1-2)[Fuc(a1-2)Gal(b1-4)[Fuc(a1-3)]GlcNAc(b1-4)]Man(a1-3)[Fuc(a1-2)Gal(b1-4)[Fuc(a1-3)]GlcNAc(b1-2)Man(a1-6)]Man(b1-4)GlcNAc(b1-4)GlcNAc
Method in brief: as §1

[10] = target: Fuc(a1-2)Gal(b1-4)[Fuc(a1-3)]GlcNAc(b1-3)Gal(b1-4)[Fuc(a1-3)]GlcNAc
Method in brief: as §1

[11] = target: Fuc(a1-2)Gal(b1-4)[Fuc(a1-3)]GlcNAc(b1-3)Gal(b1-4)[Fuc(a1-3)]GlcNAc(b1-3)Gal(b1-4)[Fuc(a1-3)]GlcNAc
Method in brief: as §1

[12] = target: Fuc(a1-2)Gal(b1-4)[Fuc(a1-3)]GlcNAc(b1-3)GalNAc
Method in brief: as §1

[13] = target: Fuc(a1-2)Gal(b1-4)[Fuc(a1-3)]GlcNAc(b1-3)[Neu5Ac(a2-6)Gal(b1-4)GlcNAc(b1-6)]Gal(b1-4)Glc
Method in brief: as §1

[14] = target: Fuc(a1-2)Gal3S(b1-4)GlcNAc
Method in brief: as §1

[15] = target: Fuc(a1-2)Gal6S(b1-3)GlcNAc
Method in brief: as §1

[16] = target: Fuc(a1-2)Gal6S(b1-3)GlcNAc6S
Method in brief: as §1

Fuc(a1-2)Gal6S(b1-4)Glc = target: Fuc(a1-2)Gal6S(b1-4)Glc
Method in brief: as §1

[17] = target: Fuc(a1-2)Gal6S(b1-4)Glc6S
Method in brief: as §1

Fuc(a1-2)[Gal(a1-3)]Gal = target: Fuc(a1-2)[Gal(a1-3)]Gal
Method in brief: as §1

[18] = target: Fuc(a1-2)[Gal(a1-3)]Gal(b1-3)GalNAc
Method in brief: as §1

[19] = target: Fuc(a1-2)[Gal(a1-3)]Gal(b1-3)GalNAc(b1-3)Gal(a1-4)Gal(b1-4)Glc
Method in brief: as §1

[20] = target: Fuc(a1-2)[Gal(a1-3)]Gal(b1-3)GlcNAc
Method in brief: as §1

[21] = target: Fuc(a1-2)[Gal(a1-3)]Gal(b1-3)GlcNAc(b1-2)Man(a1-3)[Fuc(a1-2)[Gal(a1-3)]Gal(b1-3)GlcNAc(b1-2)Man(a1-6)]Man(b1-4)GlcNAc(b1-4)GlcNAc
Method in brief: as §1

[22] = target: Fuc(a1-2)[Gal(a1-3)]Gal(b1-3)GlcNAc(b1-2)Man(a1-3)[Fuc(a1-2)[Gal(a1-3)]Gal(b1-3)GlcNAc(b1-2)Man(a1-6)]Man(b1-4)GlcNAc(b1-4)[Fuc(a1-6)]GlcNAc
Method in brief: as §1

[23] = target: Fuc(a1-2)[Gal(a1-3)]Gal(b1-3)GlcNAc(b1-3)GalNAc
Method in brief: as §1

[24] = target: Fuc(a1-2)[Gal(a1-3)]Gal(b1-3)GlcNAc(b1-6)GalNAc
Method in brief: as §1

[25] = target: Fuc(a1-2)[Gal(a1-3)]Gal(b1-4)Glc
Method in brief: as §1

[26] = target: Fuc(a1-2)[Gal(a1-3)]Gal(b1-4)GlcNAc
Method in brief: as §1

[27] = target: Fuc(a1-2)[Gal(a1-3)]Gal(b1-4)GlcNAc(b1-2)Man
Method in brief: as §1

[28] = target: Fuc(a1-2)[Gal(a1-3)]Gal(b1-4)GlcNAc(b1-2)Man(a1-3)[Fuc(a1-2)[Gal(a1-3)]Gal(b1-4)GlcNAc(b1-2)Man(a1-6)]Man(b1-4)GlcNAc(b1-4)GlcNAc
Method in brief: as §1

B1: FliC (Clostridium difficile) (protein)
chain: MRVNTNVSALIANNQMGRNVNGQSKSMEKLSSGVRIKRAADDAAGLAISEKMRAQIKGLDQAGRNVQDGISVVQTAEGSLEETGNILQRMRTLSLQSANEINNTEEREKIADELTQLKDEIERISSSTEFNGKKLLDGTSSTIRLQVGASYGTNVSGTSNNNNEIKIQLVNTASIMASAGITTASIGSMKAGGTTGTDAAKTMVSSLDAALKSLNSSRAKLGAQQNRLESTQNNLNNTLENVTAAESRIRDTDVASEMVNLSKMNILVQASQSMLAQANQQPQGVLQLLG
- glycan array binding signal (z-score) [1]: -0.47
- glycan array binding signal (z-score) [2]: -0.405
- glycan array binding signal (z-score) [3]: 0.144
- glycan array binding signal (z-score) [4]: -0.129
- glycan array binding signal (z-score) [5]: -1.19
- glycan array binding signal (z-score) [6]: -0.906
- glycan array binding signal (z-score) [7]: -0.034
- glycan array binding signal (z-score) [8]: -0.411
- glycan array binding signal (z-score) [9]: 0.298
- glycan array binding signal (z-score) [10]: 0.205
- glycan array binding signal (z-score) [11]: -0.413
- glycan array binding signal (z-score) [12]: 1.13
- glycan array binding signal (z-score) [13]: 0.114
- glycan array binding signal (z-score) [14]: -0.478
- glycan array binding signal (z-score) [15]: -0.684
- glycan array binding signal (z-score) [16]: 0.013
- glycan array binding signal (z-score) (Fuc(a1-2)Gal6S(b1-4)Glc): -0.281
- glycan array binding signal (z-score) [17]: -0.047
- glycan array binding signal (z-score) (Fuc(a1-2)[Gal(a1-3)]Gal): 0.187
- glycan array binding signal (z-score) [18]: -0.512
- glycan array binding signal (z-score) [19]: 0.091
- glycan array binding signal (z-score) [20]: -0.434
- glycan array binding signal (z-score) [21]: -0.018
- glycan array binding signal (z-score) [22]: 0.469
- glycan array binding signal (z-score) [23]: 0.173
- glycan array binding signal (z-score) [24]: -0.427
- glycan array binding signal (z-score) [25]: -0.069
- glycan array binding signal (z-score) [26]: 0.003
- glycan array binding signal (z-score) [27]: -0.008
- glycan array binding signal (z-score) [28]: 0.189
